The values that follow come from PMC9735595 (International Journal of Molecular Sciences, 2022).

This data set can be described thus: general procedure: Fmoc solid-phase peptide synthesis. The following applies: whole synthesis, scale of the general procedure 0.10 mmol.
Setting [1] is: RP-C18 HPLC, UV detection at 214 nm.

Strings that start with PEPTIDE1 are HELM notation: dots part the residues, brackets hold end groups and non-standard residues.

For the substance “PEPTIDE1{I.L.R.W.S.R.K.L.P.C.V.S}$$$$V2.0”, the “final HPLC purity” value under setting [1] is 95.2%.

In the case of “PEPTIDE1{I.V.R.W.S.K.K.V.P.C.V.S}$$$$V2.0”, the “final HPLC purity” value runs as follows: (214 nm) 96.6%; under setting [1], 96.5%.
